Experimental findings from patent publication US5707803 are described below.

Amino acid sequences for entries named in this document (tags omitted). Residues count along the entry.
UniProt P40763, 2-770: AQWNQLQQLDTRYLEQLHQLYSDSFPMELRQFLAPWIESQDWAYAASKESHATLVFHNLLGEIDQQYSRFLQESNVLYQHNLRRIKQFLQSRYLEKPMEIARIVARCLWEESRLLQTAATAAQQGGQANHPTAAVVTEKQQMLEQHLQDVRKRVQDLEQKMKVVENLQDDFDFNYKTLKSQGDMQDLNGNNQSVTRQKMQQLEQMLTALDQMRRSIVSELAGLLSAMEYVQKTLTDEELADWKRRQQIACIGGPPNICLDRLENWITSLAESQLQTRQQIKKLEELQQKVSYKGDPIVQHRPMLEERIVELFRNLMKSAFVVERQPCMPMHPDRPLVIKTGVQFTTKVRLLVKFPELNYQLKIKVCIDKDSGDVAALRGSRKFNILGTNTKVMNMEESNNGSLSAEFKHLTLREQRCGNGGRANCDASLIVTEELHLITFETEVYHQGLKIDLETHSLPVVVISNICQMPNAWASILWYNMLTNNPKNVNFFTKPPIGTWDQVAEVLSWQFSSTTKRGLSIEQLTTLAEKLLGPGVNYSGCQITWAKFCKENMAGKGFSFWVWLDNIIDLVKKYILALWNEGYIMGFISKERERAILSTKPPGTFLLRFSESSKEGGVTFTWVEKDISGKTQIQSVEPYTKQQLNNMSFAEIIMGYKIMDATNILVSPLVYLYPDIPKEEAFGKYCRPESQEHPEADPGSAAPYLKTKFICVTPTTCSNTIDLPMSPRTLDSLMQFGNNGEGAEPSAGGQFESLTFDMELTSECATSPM
UniProt P42224, 2-750: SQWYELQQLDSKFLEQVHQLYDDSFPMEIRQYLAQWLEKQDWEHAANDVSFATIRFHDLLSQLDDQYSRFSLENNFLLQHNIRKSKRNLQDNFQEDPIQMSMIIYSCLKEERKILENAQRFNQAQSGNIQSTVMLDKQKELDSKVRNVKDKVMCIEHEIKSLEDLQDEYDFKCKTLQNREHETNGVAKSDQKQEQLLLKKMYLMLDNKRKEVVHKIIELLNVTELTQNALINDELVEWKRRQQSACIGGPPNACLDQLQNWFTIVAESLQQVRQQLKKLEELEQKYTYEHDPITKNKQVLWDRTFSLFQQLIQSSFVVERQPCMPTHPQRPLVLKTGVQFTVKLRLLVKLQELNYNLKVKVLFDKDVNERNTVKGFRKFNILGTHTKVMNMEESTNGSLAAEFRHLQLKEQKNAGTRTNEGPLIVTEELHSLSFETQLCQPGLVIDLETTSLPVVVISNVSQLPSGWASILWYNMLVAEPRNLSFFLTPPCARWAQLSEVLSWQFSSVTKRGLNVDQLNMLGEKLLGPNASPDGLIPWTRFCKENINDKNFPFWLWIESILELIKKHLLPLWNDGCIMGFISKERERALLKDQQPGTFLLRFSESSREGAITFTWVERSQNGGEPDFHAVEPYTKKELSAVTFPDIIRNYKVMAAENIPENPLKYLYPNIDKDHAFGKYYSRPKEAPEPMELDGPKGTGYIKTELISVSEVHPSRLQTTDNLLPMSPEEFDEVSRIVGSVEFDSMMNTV

The target of data set [1] is STAT3 (IL-6 activated homodimer) (UniProt P40763). The data set can be described thus: competition with a labelled probe. Particulars: protein in an extract, protein details: nuclear extract of IL-6-treated HepG2 cells, variant of Ly6E GAS element (WT).
The target of data set [2] is STAT1alpha (IFN-gamma activated, p91 complex) (UniProt P42224). Briefly: competition with a labelled probe. Particulars: protein in an extract, protein details: nuclear extract of IFN-gamma-treated HepG2 cells, variant of Ly6E GAS element (WT).
Data set [3] relates to GM-CSF-activated GAS-binding complex (STAT5 presumed). The data set can be described thus: competition with a labelled probe. Particulars: protein in an extract, protein details: nuclear extract of GM-CSF-treated U937 cells, variant of Ly6E GAS element (WT).
Data set [4] concerns the target STAT3 (IL-6 activated homodimer) (UniProt P40763). Briefly: EMSA. Particulars: labelled probe, complex B; protein in an extract; protein details: nuclear extract of IL-6-treated HepG2 cells; label: 32P fill-in.
Data set [5] addresses STAT1alpha (IFN-gamma activated, p91 complex) (UniProt P42224). The data set can be described thus: EMSA. Particulars: labelled probe, HEPES pH 7.6, 80 mM NaCl, room temperature; protein in an extract; protein details: nuclear extract of IFN-gamma-treated HepG2 cells; label: 32P fill-in.
The test system of data set [6] is GM-CSF-activated GAS-binding complex (STAT5 presumed). The data set can be described thus: EMSA. Particulars: labelled probe; protein in an extract; protein details: nuclear extract of GM-CSF-treated U937 cells; label: 32P fill-in.

Results from cells or extracts need not show a direct contact. For some assays here: Negatives hold for the conditions tested. For some assays here: The comparison behind a weaker result is the experiment's own reference, which may not be listed here. For some assays here: For at least one entry, the source does not settle the construct or the ends of the probe.

As for “GATCATATTCCCGTAAGTG / GATCCACTTACGGGAATAT [7C]”, the binding result in data set [1] (binds better than WT) is listed as “binds”; in data set [2] (binds better than WT), “binds”; in data set [3] (selective for STAT1/STAT3) it was “no binding”.

Consider “GATCATATTCCTATAAGTG / GATCCACTTATAGGAATAT [8A]”, for which the binding result in data set [1] (binds STAT1alpha preferentially over STAT3) is reported as “binds more weakly”; in data set [2] (score 4 or 5, preferential for STAT1alpha over STAT3), “binds”.

Regarding “GATCATATTCCTGTAAGTG / GATCCACTTACAGGAATAT [Ly6E GAS element (WT)]”, the binding result in data set [4], in data set [5] and in data set [6] was “binds” in each case.

Consider TATTCCTGGAAGTG (double strand) [9G], for which the binding result in data set [1] (tighter than WT), in data set [2] (tighter than WT) and in data set [3] (tighter than WT) was “binds” each time.

Take TATTCCTTTAAGTG (double strand) [8T]: the binding result in data set [1] (complex B unaffected) and in data set [3] (complex unaffected) was “no binding” throughout.

In the case of TATTCTTGTAAGTG (double strand) [6T], the binding result in data set [1] (binds STATs less well than 7C) and in data set [2] (binds STATs less well than 7C) was “binds more weakly” each time.

TCTTCCTGTAAGTG (double strand) [2C]: the binding result in data set [1] (binds STATs less well than 7C) and in data set [2] (binds STATs less well than 7C) was “binds more weakly” each time.
